Our source for the binding values is publication PMC5187411.

Amino acid sequences for entries named in this document (tags omitted). A change or cut given only in a name is not applied to a line headed by its entry.
UniProt Q388W2: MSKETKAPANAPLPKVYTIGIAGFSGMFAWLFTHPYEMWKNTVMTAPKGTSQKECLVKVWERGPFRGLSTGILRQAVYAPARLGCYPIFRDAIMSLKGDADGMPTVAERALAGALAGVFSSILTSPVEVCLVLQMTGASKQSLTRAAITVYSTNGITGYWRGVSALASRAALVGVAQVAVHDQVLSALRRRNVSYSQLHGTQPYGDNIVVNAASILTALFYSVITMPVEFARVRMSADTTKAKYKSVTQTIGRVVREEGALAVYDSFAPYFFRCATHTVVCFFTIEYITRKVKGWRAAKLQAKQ
UniProt Q38DQ3: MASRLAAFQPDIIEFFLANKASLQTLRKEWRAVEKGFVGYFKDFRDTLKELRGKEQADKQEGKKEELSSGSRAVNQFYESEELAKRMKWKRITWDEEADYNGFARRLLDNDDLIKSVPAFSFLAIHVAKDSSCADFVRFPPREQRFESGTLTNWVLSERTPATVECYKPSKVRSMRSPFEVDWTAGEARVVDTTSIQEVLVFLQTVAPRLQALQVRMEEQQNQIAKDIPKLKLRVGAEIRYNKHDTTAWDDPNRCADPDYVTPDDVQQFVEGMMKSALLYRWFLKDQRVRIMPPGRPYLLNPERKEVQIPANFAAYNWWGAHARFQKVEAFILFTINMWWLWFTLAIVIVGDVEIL
UniProt Q389I9: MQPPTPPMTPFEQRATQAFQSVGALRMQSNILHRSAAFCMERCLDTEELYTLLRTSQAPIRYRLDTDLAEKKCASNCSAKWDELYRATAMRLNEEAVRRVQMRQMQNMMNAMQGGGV
UniProt Q585K7: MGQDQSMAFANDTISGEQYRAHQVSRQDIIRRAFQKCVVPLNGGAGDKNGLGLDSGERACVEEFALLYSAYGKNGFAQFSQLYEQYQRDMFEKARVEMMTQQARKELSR
UniProt Q38ED9: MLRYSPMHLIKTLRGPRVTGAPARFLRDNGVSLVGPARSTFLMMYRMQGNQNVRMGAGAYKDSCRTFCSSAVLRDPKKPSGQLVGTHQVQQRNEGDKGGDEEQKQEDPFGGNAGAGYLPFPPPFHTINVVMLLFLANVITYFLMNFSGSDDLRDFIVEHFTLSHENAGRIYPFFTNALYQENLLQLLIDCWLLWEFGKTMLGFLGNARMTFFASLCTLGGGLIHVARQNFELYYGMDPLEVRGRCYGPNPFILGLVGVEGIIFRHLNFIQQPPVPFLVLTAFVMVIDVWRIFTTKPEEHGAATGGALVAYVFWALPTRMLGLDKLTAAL
UniProt Q581D5: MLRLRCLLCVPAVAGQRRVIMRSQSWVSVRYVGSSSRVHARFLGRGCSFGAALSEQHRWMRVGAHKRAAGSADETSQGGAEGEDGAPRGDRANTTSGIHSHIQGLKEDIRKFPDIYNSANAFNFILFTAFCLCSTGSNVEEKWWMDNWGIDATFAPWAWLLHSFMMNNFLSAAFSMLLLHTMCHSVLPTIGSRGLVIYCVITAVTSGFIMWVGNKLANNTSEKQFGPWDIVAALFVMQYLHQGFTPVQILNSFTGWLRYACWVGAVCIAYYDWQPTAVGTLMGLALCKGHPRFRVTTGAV
UniProt Q57X55: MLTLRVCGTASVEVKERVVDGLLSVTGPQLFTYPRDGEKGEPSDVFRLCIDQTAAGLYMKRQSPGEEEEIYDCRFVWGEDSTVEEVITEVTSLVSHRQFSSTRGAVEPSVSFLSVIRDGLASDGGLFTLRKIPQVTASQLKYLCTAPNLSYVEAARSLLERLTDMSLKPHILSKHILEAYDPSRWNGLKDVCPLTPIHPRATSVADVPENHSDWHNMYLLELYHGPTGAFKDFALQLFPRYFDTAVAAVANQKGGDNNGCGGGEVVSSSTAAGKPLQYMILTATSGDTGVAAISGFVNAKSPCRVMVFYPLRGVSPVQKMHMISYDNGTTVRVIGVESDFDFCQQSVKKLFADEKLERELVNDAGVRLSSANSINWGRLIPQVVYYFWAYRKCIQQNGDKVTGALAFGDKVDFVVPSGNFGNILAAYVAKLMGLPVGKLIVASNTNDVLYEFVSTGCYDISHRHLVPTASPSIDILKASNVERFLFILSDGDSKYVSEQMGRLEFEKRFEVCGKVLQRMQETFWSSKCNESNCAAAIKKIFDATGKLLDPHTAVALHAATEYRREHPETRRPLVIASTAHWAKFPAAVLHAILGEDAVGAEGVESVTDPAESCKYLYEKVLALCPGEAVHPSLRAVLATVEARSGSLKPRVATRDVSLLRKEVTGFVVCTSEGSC

For assay [1], the target named is C-terminally myc-tagged MCP12 lacking the first module (T. brucei) (UniProt Q388W2). The assay can be described thus: affinity purification with mass spectrometry; SILAC-IP on anti-myc resin from digitonin-solubilized mitochondrial extracts of differentially labelled cells expressing MCP12-ΔI against MCP12-FL; cutoff fivefold; three replicates.
For assay [2], the target named is C-terminally triple HA-tagged TbTim42 (T. brucei) (UniProt Q38DQ3). The assay can be described thus: affinity purification with mass spectrometry; SILAC-IP of tagged TbTim17, TbTim42 or TbTim13 on anti-c-myc or anti-HA resin; induced against uninduced cells mixed 1:1; crude mitochondrial fractions solubilized in 1% digitonin, 20 mM Tris-HCl pH 7.4, 0.1 mM EDTA, 100 mM NaCl, 10% glycerol, 4 °C; three replicates.

The target of assay [3] is C-terminally triple HA-tagged TbTim13 (T. brucei) (UniProt Q389I9). The description is as above.

Results are given in words; binding and its absence hold for the method and conditions named. In cells and extracts the contact can be indirect. These calls come from enrichment with a bait or labelling near it, and not all partners need be listed. For part of these data: A no says only that the protein was not detected with the bait.

In the case of Tb927.4.3430 (from UniProt Q585K7), the binding result in assay [1] is listed as “binds”.

Turning to TbTim13 (from UniProt Q389I9), the binding result in assay [1] and in assay [2] was “binds” each time.

Consider TbTim42 (from UniProt Q38DQ3), for which the binding result in assay [1] and in assay [3] was “binds” each time.

Turning to TimRhom I (from UniProt Q38ED9), the results for the binding entry in assay [1], in assay [3] and in assay [2] were “no binding”, “binds” and “binds”, respectively.

On to TimRhom II (from UniProt Q581D5), for which the results for the binding entry in assay [1], in assay [3] and in assay [2] were “no binding”, “binds” and “binds”, respectively.

Turning to “putative threonine synthase (Tb927.7.4390) (from UniProt Q57X55)”, the binding result in assay [1] is reported as “binds”.
